From PubChem BioAssay AID1347075 (National Center for Advancing Translational Sciences (NCATS), 2019)
Hit rate of the full screen: of about 400,000 compounds, about 5,500 (1.4%) were called active. This list was built around the results that the source calls inconclusive (neither active nor inactive); the mix of calls is not that of the screen. The call rests on the fitted dose curve; in most records, active means well fitted cell-killing curve with a large enough effect; inconclusive means small, poorly fitted or top-dose-only effect, or effect the other way; inactive means flat fitted curve, though single readings scatter. Potencies of inconclusive entries are doubtful fits and often do not repeat.

experiment: qHTS assay for MDR1-selective chemotherapeutics: Primary screen using the parental adenocarcinoma cell KB-3-1; details: KB-3-1 viability, CellTiter-Glo ATP luminescence, 72 h; activity change, negative = cytotoxic: at 46.1 µM (top of the series); further: nearly all actives have a fitted effect of over 60% in size
Procedure, shortened: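 Cytotoxicity in the drug-sensitive parental line KB-3-1 was scored as loss of CellTiter-Glo luminescence following 72 h incubation with compound. Values come from curve fitting of normalized concentration-response data.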
On the % scale 0 is the no-effect control and ±100 the full control effect; potency means the concentration at half of the fitted maximal effect.

Structure (SMILES) | Potency | activity change, negative = cytotoxic
COC(=O)c1ccccc1S(=O)(=O)Nc1cc(=O)c2ccccc2[nH]1 | inactive | 
COc1ccc(OC)c(NC(=O)Nc2cc(NC(=O)Nc3cc(OC)ccc3OC)c(C)nc2C)c1 | inconclusive: 16.4 µM [cytotoxic, single point] | 
Cc1ccc(-n2ccc(=O)c(-c3ccnc(SCc4cccc(Cl)c4)n3)n2)cc1 | inactive | 
S=C(NN=Cc1ccc2c(c1)OCO2)NN=Cc1ccc2c(c1)OCO2 | inconclusive: 20.6 µM [cytotoxic, single point] | 
Nc1nc(Sc2ccc([N+](=O)[O-])cc2[N+](=O)[O-])n[nH]1 | inconclusive: 18.4 µM [cytotoxic, single point] | 
Cc1ccsc1C(=O)N1CCCC(CO)(Cc2ccccc2)C1 (stereo not drawn) | inconclusive: 32.6 µM [cytotoxic, single point] | 
Cc1ccc2nc(N(CCCN(C)C)C(=O)c3ccc(S(=O)(=O)N4CCc5ccccc5C4)cc3)sc2c1 | inconclusive: 25.9 µM [cytotoxic, single point] | 
COc1cc2c(cc1OC)C(c1ccc(F)cc1)N(c1cccc(C#N)c1)C(=O)C2 (stereo not drawn) | inconclusive: 23.1 µM [rising, single point] | 
COc1ccccc1C(=O)N1CCC(C(=O)c2ccc(F)cc2)CC1 | inactive | 
CCCn1nc(C(=O)Nc2cccc(C(=O)OC)c2)c2ccccc2c1=O | inactive | 
COC(=O)c1ccc(NC(=S)NC2CCCCC2C)cc1 (stereo not drawn) | inconclusive: 23.1 µM [cytotoxic, single point] | 
Cc1cc(C)c2oc(-c3cccc(NC(=O)COc4ccc(Cl)cc4C)c3C)nc2c1 | inconclusive: 29.1 µM [rising, single point] | 
O=C(CCCSc1nc2ccccc2s1)NCc1ccco1 | inactive | 
CCOCCCNc1ncnc2c1nc1n2CCCC1 | inactive | 
COc1ccccc1N1CCN(c2ccc([N+](=O)[O-])cc2Cl)CC1 | active: 16.4 µM | 
O=C(NCCc1ccccc1)c1coc(=O)c(Br)c1 | inconclusive: 29.1 µM [cytotoxic, single point] | 
O=S(=O)(c1ccccc1)c1ncc(C(F)(F)F)cc1O | inactive | 
Cc1ccc2nc(N3CCN(Cc4nnnn4C4CCCC4)CC3)c(C#N)cc2c1 | inactive | 
CC(Sc1nnc(NC2CCCCC2)s1)C(=O)Nc1ccc2c(c1)C(=O)c1ccccc1C2=O (stereo not drawn) | inconclusive: 0.164 µM [rising, full curve] | 
O=C(CC1(O)C(=O)Nc2cc(Cl)cc(Cl)c21)c1ccccc1O (stereo not drawn) | inactive | 
O=C(CCN1C(=O)c2ccccc2C1=O)NC(=S)Nc1ccccc1Cl | inactive | 
COC(=O)c1ccc2c(=O)n(CCCCCC(=O)N3CCN(c4ccccc4)CC3)c(=O)[nH]c2c1 | inconclusive: 29.1 µM [cytotoxic, single point] | 
C/C(=N\NC(=O)c1cc2ccccc2cc1O)c1ccc(C)o1 | inconclusive: 18.4 µM [cytotoxic, single point] | 
O=C(O)c1cccc(-n2sc3ccccc3c2=O)c1 |  | inconclusive: -7.14%
C=CCc1ccc(OCCN2CCc3ccccc3C2)c(OC)c1 | inactive | 

Structure (SMILES) | Potency | activity change, negative = cytotoxic
Cc1ccccc1SCC(=O)NNC(=O)c1ccncc1 | inactive | 
Cc1nc(-c2cccc(NC(=O)Nc3ccc([N+](=O)[O-])cc3)c2)no1 | inconclusive: 32.6 µM [cytotoxic, single point] | 
Fc1cc2[nH]c(=S)[nH]c2cc1Cl | active: 8.2 µM | 
Cc1ccccc1OCCSc1nc2ccc(NC(=O)c3ccccc3)cc2s1 | inconclusive: 29.1 µM [cytotoxic, single point] | 
Cc1ccc(S(=O)(=O)c2ccc([N+](=O)[O-])o2)cc1 | inconclusive: 29.1 µM [cytotoxic, single point] | 
COc1ccc(S(=O)(=O)N2CCCCC2)cc1NC(=O)CNc1ccc(F)cc1C | inactive | 
N#Cc1c(-c2cccnc2)c2c([nH]c1=O)-c1ccccc1OC2 | inactive | 
CN(c1ccccc1)S(=O)(=O)c1ccc(NC(=O)c2cc(=O)c3ccccc3o2)cc1 | inactive | 
CN(Cc1ccccc1)C(=O)c1ccc(NC(=O)Cc2ccc(NC(=O)C3CCN(S(=O)(=O)c4cccc([N+](=O)[O-])c4)CC3)cc2)cc1 | inconclusive: 7.31 µM [cytotoxic, partial curve, poor fit] | 
COc1ccc(-c2cc(NC(C)=O)c3ncc(-c4ccccc4)n3c2)c(OC)c1 | inconclusive: 23.1 µM [cytotoxic, single point] | 
C[C@@H]1CN([C@@H](C)CO)C(=O)Cc2cc(NC(=O)Nc3cccc4ccccc34)ccc2O[C@@H]1CN(C)Cc1ccc(C(F)(F)F)cc1 | inconclusive: 29.1 µM [cytotoxic, single point] | 
COc1ccc2cc(C#N)c(SCC(=O)N3CC(=O)Nc4ccccc43)nc2c1 | active: 7.31 µM | 
CCCSc1nnc(-c2cccc(S(=O)(=O)N(C)C)c2)n1-c1cc(OC)ccc1OC | inactive | 
COc1ccc2c(c1)C(=O)CC2 | inactive | 
O=C(COc1ccc(CNC[C@H]2O[C@@H](n3ccc(=O)[nH]c3=O)[C@H](O)[C@@H]2O)cc1)Nc1ccccn1 | inactive | 
COc1ccc(C(=O)N2CCC(C(=O)Nc3ccc4c(c3)OCCO4)CC2)cc1 | inactive | 
COc1cccc(NC(=O)CN2C(=O)NC(CCc3ccccc3)C2=O)c1 (stereo not drawn) | inconclusive: 9.2 µM [rising, partial curve, poor fit] | 
COc1ccccc1C1Nc2ccccc2-n2c(-c3ccccc3)c3c(=O)n(C)c(=O)n(C)c3c21 (stereo not drawn) | inconclusive: 29.1 µM [cytotoxic, single point] | 
CCCCCNC(=O)c1nc(-c2c(F)cccc2F)oc1-c1ccccc1 | inactive | 
Cc1cccc(C)c1OC(=O)CN(c1ccc(Cl)cc1)S(C)(=O)=O | inconclusive: 29.1 µM [cytotoxic, single point] | 
Cc1ccc(Cl)cc1N1CCN(C(=O)C2(S(=O)(=O)c3ccc(Cl)cc3)CC2)CC1 | inconclusive: 20.6 µM [cytotoxic, single point] | 
O=C(C1CCN(c2ncnc3c2nc2n3CCCCC2)CC1)N1CCN(c2cccc(Cl)c2)CC1 | inconclusive: 13 µM [cytotoxic, partial curve] | 
O=C(Nc1ccc(Br)c(C(F)(F)F)c1)c1ccccc1 | inactive | 
Clc1ccc(/C=N/Nc2ncnc3ccccc23)cc1Cl | inconclusive: 32.6 µM [cytotoxic, single point] | 
O=C(/C=C/c1ccc(O)c(O)c1)c1ccc(S(=O)(=O)N2CCCCCC2)cc1 | inactive | 

Reprinted at random: 2 records from the list.
Structure (SMILES) | Potency | activity change, negative = cytotoxic
Cc1cccc(C)c1OC(=O)CN(c1ccc(Cl)cc1)S(C)(=O)=O | inconclusive: 29.1 µM [cytotoxic, single point] | 
COc1ccc(-c2cc(NC(C)=O)c3ncc(-c4ccccc4)n3c2)c(OC)c1 | inconclusive: 23.1 µM [cytotoxic, single point] | 

The results go on:

Structure (SMILES) | Potency | activity change, negative = cytotoxic
O=C(c1ccco1)N1CCN(C(=O)c2ccc(COc3ccc4c(c3)CCC4)o2)CC1 | inactive | 
CCCc1nc2c(=O)n(C)c(=O)nc-2n(C)n1 | active: 4.61 µM | 
Cc1cc(=O)n2c3c(c4c(cc13)c(CN(C)C)cc(=O)n4C)OC2 | inconclusive: 29.1 µM [cytotoxic, single point] | 
Cc1ccccc1-n1nnnc1SCC(=O)Nc1ccc(N2CCN(C)CC2)cc1 | inconclusive: 10.3 µM [cytotoxic, partial curve, poor fit] | 
COc1ccccc1CN1CCCC(CN(CCN(C)C)C(=O)c2ccc(C)cc2)C1 (stereo not drawn) | inconclusive: 20.6 µM [rising, partial curve, poor fit] | 
COc1ccc(C)cc1-n1nnnc1SCc1nc2ccccc2c(=O)[nH]1 | inconclusive: 29.1 µM [cytotoxic, single point] | 
O=[N+]([O-])c1cccc(N=Nc2ccc(O)cc2O)c1 | inconclusive: 29.1 µM [cytotoxic, single point] | 
CCC(C)NS(=O)(=O)c1ccc(S(=O)(=O)N(CCc2ccc(OC)c(OC)c2)Cc2cccs2)cc1 (stereo not drawn) | inconclusive: 23.1 µM [cytotoxic, single point] | 
COc1ccc2nc3n(c(=O)c2c1)-c1ncccc1C(=O)NC3C (stereo not drawn) | inactive | 
Cc1ccc(N2C(=O)C(Cl)=C(N3CCOCC3)C2=O)c(C)c1 |  | inconclusive: -10.3%
CCCCCn1c(=O)c(-c2nc3ccccc3[nH]2)c(O)c2ccccc21 | inconclusive: 16.4 µM [cytotoxic, single point] | 
COC(=O)c1cccnc1-n1c(=O)c2cccnc2n(CC(=O)Nc2ccccc2F)c1=O | inconclusive: 29.1 µM [rising, single point] | 
CCOC(=O)c1c(C)oc2nc(C)nc(NCc3ccc(OC)cc3OC)c12 | inactive | 
Cc1ccccc1CN1[C@@H](Cc2ccccc2)COCCS1(=O)=O | inactive | 
COc1ccc(Cl)cc1C1=NOC2(CCC2)C(=O)N1Cc1cccc(C#N)c1 | inconclusive: 23.1 µM [cytotoxic, single point] | 
Cc1ccc(S(=O)(=O)N2CCN(C(=O)CCCOc3ccc(Cl)cc3C)CC2)cc1 | inconclusive: 20.6 µM [cytotoxic, single point] | 
O=c1cc(CCl)nc(Cc2c(Cl)cccc2Cl)[nH]1 | inconclusive: 29.1 µM [cytotoxic, single point] | 
COc1cccc(N2CCN(S(=O)(=O)c3ccc(-n4cnnn4)cc3)CC2)c1 | inactive | 
O=C(C1CCCCC1)N(Cc1nc2sc3c(c2c(=O)[nH]1)CCCC3)Cc1cccs1 | inactive | 
CCc1ccccc1NC(=O)c1ccccc1Sc1ccc([N+](=O)[O-])cc1Cl | inactive | 
CCNC(=O)C1CCCN(C(=O)c2ccc(N(C)C)cc2)CC1 (stereo not drawn) | inactive | 
CC(C)CC(N=Cc1c(O)c2ccccc2oc1=O)C(=O)O (stereo not drawn) | inconclusive: 29.1 µM [rising, single point] | 
CCOC(=O)c1c(NC(=O)c2cc(-c3ccc(O)cc3)on2)sc(C(C)=O)c1C | inconclusive: 32.6 µM [rising, single point] | 

Molecules shown so far with bromine:
Structure (SMILES) | Potency | activity change, negative = cytotoxic
O=C(NCCc1ccccc1)c1coc(=O)c(Br)c1 | inconclusive: 29.1 µM [cytotoxic, single point] | 
O=C(Nc1ccc(Br)c(C(F)(F)F)c1)c1ccccc1 | inactive | 
